Reference: PMC3883281

Target: AtSAG:GFP (Arabidopsis thaliana)
Assay: co-IP; AtSAG:GFP as bait; one differing band of about 30 kDa on SDS-PAGE analysed further to identify the proteins; how they were identified and the conditions are not told

| Binder | binding |
| --- | --- |
| protein encoded by At3g01570 (protein, UniProt Q9SS98 1-183) MADVRTHSHQLQVHPQRQHEGGIKVLYPQSGPSSTQVLAVFVGVPIGGTLLTIAGLTLAGSVIGLMLAFPLFLIFSPVIVPAAFVIGLAMTGFLASGAIGLTGLSSMSWVLNYIRRAGQHIPEELEEAKHRLADMAEYVGQRTKDAGQTIEDKAHDVREAKTFDVRDRDTTKGTHNVRDTKTT | binds |
| protein encoded by At4g36700 (protein, UniProt F4JQG6 26-522) KSEESEEYDVAVPSCCGFSSPLLIKKDQWKPIFETKFGQISTVQIGNGCGGMGPYKIHSITLEPNTILLPLLLHSDMVFFVDSGSGILNWVDEEAKSTEIRLGDVYRLRPGSVFYLQSKPVDIFLGTKLKLYAIFSNNDECLHDPCFGAYSSITDLMFGFDETILQSAFGVPEGIIELMRNRTKPPLIVSETLCTPGVANTWQLQPRLLKLFAGSADLVDNKKKKEKKEKKEKVKKAKTFNVFESEPDFESPYGRTITINRKDLKVLKGSMVGVSMVNLTQGSMMGPHWNPWACEISIVLKGAGMVRVLRSSISSNTSSECKNVRFKVEEGDIFAVPRLHPMAQMSFNNDSLVFVGFTTSAKNNEPQFLAGEDSALRMLDRQVLAASLNVSSVTIDGLLGAQKEAVILECHSCAEGEIEKLKVEIERKKIDDERKRRHDERKKEEEEAKREEEERRKREEEEEKKRWPPQQPPQEEELRERQLPMEKEWEMEGEEES | binds |

No constants are given. Whether binding was seen depends on the method and setting. Binding seen in cells or lysates may run through a third protein. A result given as binding can be weak or reduced; the word gives no strength.
